Experimental data taken from US20250295798A1 (BeiGene Switzerland GmbH, priority 2022, published 2025).

Experiment: peptide synthesis
Settings: for conjugation yield / final purity (method not given): conjugation step

Substance	step yield (coupling step) [% yield]	step yield (late stage modification step)	other results
(9H-fluoren-9-yl)methyl((10S)-10-benzyl-1-((9S)-9-ethyl-5-fluoro-9-hydroxy-4-methyl-10,13-dioxo-2,3,9,10,13,15-hexahydro-1H,12H-benzo[de]pyrano[3′,4′:6,7]indolizino[1,2-b]quinolin-1-yl)-6,9,12,15-tetraoxo-3-oxa-5,8,11,14-tetraazahexadecan-16-yl)carbamate (3-26a)			conjugation yield: 66% yield
benzyl (5S,14S)-14-benzyl-1-(9H-fluoren-9-yl)-23-fluoro-23-methyl-3,6,9,12,15,18-hexaoxo-5-(3-oxo-3-((((2S,3R,4R,5S,6R)-3,4,5-trihydroxy-6-(hydroxymethyl)tetrahydro-2H-pyran-2-yl)methyl)amino)propyl)-2,21-dioxa-4,7,10,13,16,19-hexaazatetracosan-24-oate (3-24d)	52.9		
(9H-fluoren-9-yl)methyl ((S)-12-benzyl-1-(((1S,9S)-9-ethyl-5-fluoro-9-hydroxy-4-methyl-10,13-dioxo-2,3,9,10,13,15-hexahydro-1H,12H-benzo[de]pyrano[3′,4′:6,7]indolizino[1,2-b]quinolin-1-yl)amino)-1,8,11,14,17-pentaoxo-2,5-dioxa-7,10,13,16-tetraazaoctadecan-18-yl)carbamate (3-5a)			conjugation yield: 70% yield; final purity (method not given): 87% purity
benzyl (11S)-1-benzyl-1-(9H-fluoren-9-yl)-20-fluoro-20-methyl-3,6,9,12,15-pentaoxo-2,18-dioxa-4,7,10,13,16-pentaazahenicosan-21-oate (3-24b)		67.7% yield	
(9H-fluoren-9-yl)methyl ((6S,15S)-15-benzyl-3,7,10,13,16,19-hexaoxo-1-((2S,3R,4R,5S,6R)-3,4,5-trihydroxy-6-(hydroxymethyl)tetrahydro-2H-pyran-2-yl)-22-oxa-2,8,11,14,17,20-hexaazahexacos-25-yn-6-yl)carbamate (3-13c)	57.1		
(5S,14S)-14-benzyl-1-(9H-fluoren-9-yl)-23-fluoro-23-methyl-3,6,9,12,15,18-hexaoxo-5-(3-oxo-3-((((2S,3R,4R,5S,6R)-3,4,5-trihydroxy-6-(hydroxymethyl)tetrahydro-2H-pyran-2-yl)methyl)amino)propyl)-2,21-dioxa-4,7,10,13,16,19-hexaazatetracosan-24-oic acid (3-24e)		100% yield	
benzyl(S)-11-benzyl-1-(9H-fluoren-9-yl)-3,6,9,12,15-pentaoxo-2,18-dioxa-4,7,10,13,16-pentaazahenicosan-21-oate (3-22b)		83.9% yield	
benzyl(5S,14S)-14-benzyl-1-(9H-fluoren-9-yl)-3,6,9,12,15,18-hexaoxo-5-(3-oxo-3-((((2S,3R,4R,5S,6R)-3,4,5-trihydroxy-6-(hydroxymethyl)tetrahydro-2H-pyran-2-yl)methyl)amino)propyl)-2,21-dioxa-4,7,10,13,16,19-hexaazatetracosan-24-oate (3-22d)	80.9		
(9H-fluoren-9-yl)methyl (S)-(7-benzyl-2,5,8,11-tetraoxo-14-oxa-3,6,9,12-tetraazaoctadec-17-yn-1-yl)carbamate (3-13a)		yield 70.3%	
(9H-fluoren-9-yl)methyl ((S)-12-benzyl-2-((1S,9S)-9-ethyl-5-fluoro-9-hydroxy-4-methyl-10,13-dioxo-2,3,9,10,13,15-hexahydro-1H,12H-benzo[de]pyrano[3′,4′:6,7]indolizino[1,2-b]quinolin-1-yl)-8,11,14,17-tetraoxo-5-oxa-2,7,10,13,16-pentaazaoctadecan-18-yl)carbamate (3-6a)			final purity (method not given): 53% purity
benzyl (5S,14S)-14-benzyl-1-(9H-fluoren-9-yl)-3,6,9,12,15,18-hexaoxo-5-(3-oxo-3-((((2S,3R,4R,5S,6R)-3,4,5-trihydroxy-6-(hydroxymethyl)tetrahydro-2H-pyran-2-yl)methyl)amino)propyl)-2,21-dioxa-4,7,10,13,16,19-hexaazatricosan-23-oate	51.0		
